Targets include SPIB (UniProt Q01892); ETV5 (UniProt P41161); ELF4 (UniProt Q99607).
What all share (experiment): DAPPL (digital affinity profiling via proximity ligation, sequencing)
Common to all, as to settings: 10 mM Tris-HCl pH 7.5, 50 mM NaCl, 1 mM DTT, 4% glycerol, room temperature, 30 min; GST-TFs on glutathione beads, 16-mer random dsDNA library, 0.1% …; high values mean tight binding; double strand, one strand shown; scale: fold enrichment (6-mer frequency, TF over GST control)

Sequences of proteins named here, by UniProt entry; tags and fusion partners are left off. A change or cut given only in a name is not applied to a line headed by its entry.
UniProt Q01892: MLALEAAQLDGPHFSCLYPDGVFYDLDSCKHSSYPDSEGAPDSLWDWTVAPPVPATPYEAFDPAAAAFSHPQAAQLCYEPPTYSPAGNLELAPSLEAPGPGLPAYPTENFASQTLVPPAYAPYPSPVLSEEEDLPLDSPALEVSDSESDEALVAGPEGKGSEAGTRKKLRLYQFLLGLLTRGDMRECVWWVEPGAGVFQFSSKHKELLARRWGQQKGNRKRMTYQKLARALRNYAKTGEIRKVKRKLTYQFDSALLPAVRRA
UniProt P41161: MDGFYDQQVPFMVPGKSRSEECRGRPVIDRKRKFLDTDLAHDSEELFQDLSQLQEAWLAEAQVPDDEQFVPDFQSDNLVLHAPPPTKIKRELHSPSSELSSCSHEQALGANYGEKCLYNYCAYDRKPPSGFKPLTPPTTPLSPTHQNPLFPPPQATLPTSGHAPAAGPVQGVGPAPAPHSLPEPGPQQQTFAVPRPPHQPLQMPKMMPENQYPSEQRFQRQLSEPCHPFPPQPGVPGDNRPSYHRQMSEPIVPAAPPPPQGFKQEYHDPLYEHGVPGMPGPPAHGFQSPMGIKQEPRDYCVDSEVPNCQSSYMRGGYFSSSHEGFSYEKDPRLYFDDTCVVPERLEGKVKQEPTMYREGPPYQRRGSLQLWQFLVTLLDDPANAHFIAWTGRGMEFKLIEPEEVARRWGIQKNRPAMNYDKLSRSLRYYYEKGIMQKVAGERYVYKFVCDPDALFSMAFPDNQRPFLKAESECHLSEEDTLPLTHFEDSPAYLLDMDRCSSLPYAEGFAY
UniProt Q99607: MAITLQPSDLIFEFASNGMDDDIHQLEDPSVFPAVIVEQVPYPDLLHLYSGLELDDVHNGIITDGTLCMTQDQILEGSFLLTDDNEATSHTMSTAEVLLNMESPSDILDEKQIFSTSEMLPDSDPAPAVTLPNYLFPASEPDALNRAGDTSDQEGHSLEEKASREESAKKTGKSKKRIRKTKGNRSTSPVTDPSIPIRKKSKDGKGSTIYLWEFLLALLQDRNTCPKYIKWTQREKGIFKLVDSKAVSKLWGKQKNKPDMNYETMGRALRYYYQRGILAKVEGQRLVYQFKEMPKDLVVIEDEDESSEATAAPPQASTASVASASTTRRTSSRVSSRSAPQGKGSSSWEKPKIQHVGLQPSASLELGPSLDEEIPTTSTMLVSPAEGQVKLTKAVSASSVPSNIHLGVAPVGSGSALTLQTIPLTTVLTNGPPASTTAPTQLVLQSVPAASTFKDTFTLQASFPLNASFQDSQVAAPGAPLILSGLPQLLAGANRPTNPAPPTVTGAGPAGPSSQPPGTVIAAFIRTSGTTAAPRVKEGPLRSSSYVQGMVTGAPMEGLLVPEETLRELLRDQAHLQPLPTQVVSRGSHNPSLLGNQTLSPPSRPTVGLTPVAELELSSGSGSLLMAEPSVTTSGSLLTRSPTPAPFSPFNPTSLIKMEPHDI

A further test deals with T1, FLI1 (UniProt Q01543).
T1 sequence: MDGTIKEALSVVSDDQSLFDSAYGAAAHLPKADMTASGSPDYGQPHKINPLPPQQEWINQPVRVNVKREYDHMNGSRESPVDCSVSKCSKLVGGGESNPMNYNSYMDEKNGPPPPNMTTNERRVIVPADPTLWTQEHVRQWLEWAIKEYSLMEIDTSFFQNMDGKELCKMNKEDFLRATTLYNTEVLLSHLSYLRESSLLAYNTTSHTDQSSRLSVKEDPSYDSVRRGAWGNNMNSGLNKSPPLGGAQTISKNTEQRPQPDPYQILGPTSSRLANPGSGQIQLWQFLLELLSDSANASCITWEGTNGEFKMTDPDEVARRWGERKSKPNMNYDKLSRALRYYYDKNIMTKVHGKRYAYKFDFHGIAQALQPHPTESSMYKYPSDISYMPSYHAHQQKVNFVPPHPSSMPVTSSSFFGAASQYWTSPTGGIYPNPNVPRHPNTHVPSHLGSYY

The target in another test is T2, EHF (UniProt Q9NZC4).
T2 sequence: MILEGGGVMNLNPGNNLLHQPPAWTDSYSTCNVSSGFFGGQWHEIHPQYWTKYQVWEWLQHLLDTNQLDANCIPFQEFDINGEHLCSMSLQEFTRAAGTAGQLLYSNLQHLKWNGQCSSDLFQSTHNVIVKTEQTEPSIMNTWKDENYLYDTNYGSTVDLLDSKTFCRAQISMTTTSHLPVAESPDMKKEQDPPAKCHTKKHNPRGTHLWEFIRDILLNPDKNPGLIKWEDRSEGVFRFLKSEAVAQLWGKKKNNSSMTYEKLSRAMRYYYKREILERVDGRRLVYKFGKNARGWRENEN

In another test the target is T3, ETV2 (UniProt O00321).
T3 sequence: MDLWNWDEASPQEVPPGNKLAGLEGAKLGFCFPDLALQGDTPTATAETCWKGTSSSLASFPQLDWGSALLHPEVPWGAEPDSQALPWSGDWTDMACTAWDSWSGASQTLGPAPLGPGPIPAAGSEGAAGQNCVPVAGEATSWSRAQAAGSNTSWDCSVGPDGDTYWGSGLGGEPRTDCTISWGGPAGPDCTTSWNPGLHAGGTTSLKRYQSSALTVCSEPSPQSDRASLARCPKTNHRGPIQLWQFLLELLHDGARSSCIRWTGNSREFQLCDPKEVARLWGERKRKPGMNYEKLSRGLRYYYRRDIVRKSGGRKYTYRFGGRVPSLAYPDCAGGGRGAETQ

Another test concerns the target T4, ETV3L (UniProt Q6ZN32).
T4 sequence: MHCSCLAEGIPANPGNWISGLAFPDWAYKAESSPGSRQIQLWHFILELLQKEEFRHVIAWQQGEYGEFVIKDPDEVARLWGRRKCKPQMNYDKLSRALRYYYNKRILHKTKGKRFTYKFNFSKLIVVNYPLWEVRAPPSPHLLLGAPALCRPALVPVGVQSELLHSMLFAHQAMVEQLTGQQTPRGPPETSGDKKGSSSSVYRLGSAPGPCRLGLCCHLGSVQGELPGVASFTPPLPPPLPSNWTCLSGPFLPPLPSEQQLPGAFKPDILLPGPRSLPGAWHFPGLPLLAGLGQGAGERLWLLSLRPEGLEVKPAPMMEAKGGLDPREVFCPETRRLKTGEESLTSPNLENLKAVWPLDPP

The list shows a part of the results, in another mix than the full data. At the low end of the ranking the order means little.

For the sequence GTGAAA, the binding signal in the test with FLI1 is 0.698; with EHF, 0.783; in the test with SPIB, 0.649; with ETV5, 0.748; with ELF4, 0.756; in the test with ETV2, 0.768. The same sequence returned a binding signal with ETV3L of 0.739.

On to AGGGTA, for which the binding signal with FLI1 came to 0.897; with EHF, 0.85; in the test with SPIB it was 0.922; with ETV5, 0.856; with ELF4, 0.871; with ETV2, 0.72. In the test with ETV3L, the binding signal was 0.873.

Consider TACCAG, for which the binding signal in the test with FLI1 is 0.822; with EHF, 0.886; in the test with SPIB, 0.802; with ETV5 it was 0.849; with ELF4 it was 0.877; in the test with ETV2 it was 0.905. In the test with ETV3L, this sequence yielded a binding signal of 0.862.

For the sequence GGTCGC, the binding signal worked out at 0.865 with FLI1; 0.836 with EHF; 0.794 in the test with SPIB; 0.823 with ETV5; 0.831 with ELF4; 0.805 in the test with ETV2. This sequence displayed a binding signal in the test with ETV3L of 0.787.

CGGACA: the binding signal came out at 0.785 with FLI1; 0.807 in the test with EHF; 0.766 with SPIB; 0.813 with ETV5; 0.751 with ELF4; 0.804 with ETV2. Further, the binding signal with ETV3L turned out to be 0.795.

In the case of GGAAGG, the binding signal with FLI1 came to 0.777; in the test with EHF, 0.842; with SPIB it was 0.853; with ETV5 it was 0.874; in the test with ELF4, 0.731; with ETV2 it was 0.771. In addition, the binding signal with ETV3L amounted to 0.797.

Turning to GTGATC, the binding signal with FLI1 amounted to 0.834; with EHF it was 0.901; in the test with SPIB, 0.778; in the test with ETV5, 0.774; with ELF4, 0.818; in the test with ETV2, 0.886. The same sequence showed a binding signal with ETV3L of 0.771.

Consider AGGTAG, for which the binding signal with FLI1 was determined as 0.68; with EHF it was 0.683; with SPIB, 0.698; with ETV5 it was 0.638; with ELF4, 0.644; with ETV2 it was 0.723. In the test with ETV3L, this sequence registered a binding signal of 0.69.

As for AAGAGG, the binding signal with FLI1 is 0.774; with EHF, 0.911; in the test with SPIB, 0.914; with ETV5 it was 0.849; in the test with ELF4, 0.851; with ETV2 it was 0.84. In addition, the binding signal with ETV3L is 0.819.

As for CGGTGG, the binding signal with FLI1 amounted to 0.653; in the test with EHF it was 0.624; with SPIB, 0.655; with ETV5 it was 0.626; with ELF4, 0.627; with ETV2 it was 0.536. Further, the binding signal in the test with ETV3L amounted to 0.698.

For CCGAGG, the binding signal in the test with FLI1 was 0.702; with EHF, 0.698; with SPIB, 0.662; with ETV5 it was 0.71; with ELF4, 0.738; in the test with ETV2, 0.728. Moreover, the binding signal with ETV3L was 0.736.

On to TAGAGG, for which the binding signal came out at 0.826 with FLI1; 0.807 with EHF; 0.812 in the test with SPIB; 0.804 with ETV5; 0.787 with ELF4; 0.854 in the test with ETV2. In the test with ETV3L, the binding signal was 0.845.

In the case of CAGGAG, the binding signal in the test with FLI1 was found to be 0.258; in the test with EHF, 0.255; in the test with SPIB, 0.276; with ETV5 it was 0.281; in the test with ELF4, 0.257; in the test with ETV2 it was 0.302. This sequence also returned a binding signal with ETV3L of 0.265.

As to CGTGGA, the binding signal with FLI1 was found to be 0.49; in the test with EHF, 0.617; with SPIB, 0.562; with ETV5, 0.554; with ELF4, 0.551; with ETV2 it was 0.512. Further, the binding signal with ETV3L was determined as 0.561.

As to GACAAC, the binding signal with FLI1 was 0.932; with EHF, 0.954; with SPIB it was 0.911; in the test with ETV5, 0.935; with ELF4, 0.973; in the test with ETV2, 0.953. This sequence also displayed a binding signal in the test with ETV3L of 0.912.

Turning to GACAAA, the binding signal with FLI1 came to 0.934; with EHF, 0.947; with SPIB, 0.924; in the test with ETV5, 0.966; with ELF4 it was 0.965; with ETV2 it was 0.938. The sequence also had a binding signal in the test with ETV3L of 0.968.

As to GGTTCG, the binding signal came to 0.791 in the test with FLI1; 0.804 with EHF; 0.774 with SPIB; 0.848 in the test with ETV5; 0.778 with ELF4; 0.827 in the test with ETV2. The sequence also displayed a binding signal with ETV3L of 0.828.

As to GGGAGT, the binding signal is 0.235 in the test with FLI1; 0.206 with EHF; 0.247 with SPIB; 0.256 with ETV5; 0.213 with ELF4; 0.296 with ETV2. The sequence further came in with a binding signal with ETV3L of 0.255.

Regarding GACGCA, the binding signal with FLI1 is 0.529; with EHF, 0.546; in the test with SPIB, 0.533; with ETV5, 0.564; in the test with ELF4 it was 0.574; with ETV2, 0.53. The same sequence returned a binding signal with ETV3L of 0.571.

Turning to AGAGGT, the binding signal with FLI1 came out at 0.762; with EHF, 0.868; in the test with SPIB, 0.886; with ETV5 it was 0.892; with ELF4 it was 0.852; with ETV2 it was 0.775. In the test with ETV3L, this sequence showed a binding signal of 0.756.

Regarding CGAGCC, the binding signal with FLI1 is 0.862; in the test with EHF it was 0.907; in the test with SPIB, 0.872; with ETV5, 0.844; with ELF4, 0.805; with ETV2 it was 0.75. The sequence also came in with a binding signal in the test with ETV3L of 0.775.

As to GGCGGG, the binding signal worked out at 0.328 with FLI1; 0.332 in the test with EHF; 0.31 with SPIB; 0.325 with ETV5; 0.335 with ELF4; 0.322 in the test with ETV2. In the test with ETV3L, this sequence showed a binding signal of 0.322.

For the sequence TGGCGG, the binding signal with FLI1 was found to be 0.827; in the test with EHF it was 0.757; with SPIB it was 0.834; with ETV5 it was 0.766; in the test with ELF4, 0.698; with ETV2, 0.965. This sequence also showed a binding signal with ETV3L of 0.811.

In the case of CACCAG, the binding signal was 0.76 in the test with FLI1; 0.734 with EHF; 0.733 with SPIB; 0.733 with ETV5; 0.786 in the test with ELF4; 0.722 with ETV2. Also, the binding signal with ETV3L is 0.785.

Consider GTGAAG, for which the binding signal with FLI1 was 0.567; with EHF, 0.598; in the test with SPIB, 0.601; with ETV5, 0.572; with ELF4, 0.543; with ETV2, 0.521. The same sequence had a binding signal in the test with ETV3L of 0.564.

AATCGG: the binding signal was 0.566 with FLI1; 0.559 with EHF; 0.531 with SPIB; 0.602 with ETV5; 0.543 in the test with ELF4; 0.553 in the test with ETV2. Also, the binding signal in the test with ETV3L amounted to 0.545.

In the case of GCGGTG, the binding signal with FLI1 amounted to 0.547; with EHF, 0.565; in the test with SPIB, 0.566; with ETV5, 0.525; with ELF4, 0.577; in the test with ETV2 it was 0.573. Moreover, the binding signal in the test with ETV3L stood at 0.527.

Regarding CAGTCG, the binding signal came out at 0.181 with FLI1; 0.163 in the test with EHF; 0.174 with SPIB; 0.166 with ETV5; 0.179 with ELF4; 0.171 with ETV2. Besides, the binding signal with ETV3L amounted to 0.173.

In the case of GGGTGA, the binding signal with FLI1 was determined as 0.622; in the test with EHF, 0.588; with SPIB it was 0.581; with ETV5, 0.653; with ELF4, 0.633; in the test with ETV2, 0.635. In the test with ETV3L, this sequence gave a binding signal of 0.614.

Consider GACCAC, for which the binding signal with FLI1 came to 0.925; with EHF, 0.989; with SPIB, 0.791; in the test with ETV5, 0.847; with ELF4 it was 0.996; in the test with ETV2 it was 0.918. In addition, in the test with ETV3L, the binding signal was 0.915.

For the origin of these results see publication PMC7862700.
